Results on one substance are retold here after article PMC8052343.

Sequences of proteins named here, by UniProt entry; tags and fusion partners are left off. A change or cut given only in a name is not applied to a line headed by its entry.
UniProt P25007: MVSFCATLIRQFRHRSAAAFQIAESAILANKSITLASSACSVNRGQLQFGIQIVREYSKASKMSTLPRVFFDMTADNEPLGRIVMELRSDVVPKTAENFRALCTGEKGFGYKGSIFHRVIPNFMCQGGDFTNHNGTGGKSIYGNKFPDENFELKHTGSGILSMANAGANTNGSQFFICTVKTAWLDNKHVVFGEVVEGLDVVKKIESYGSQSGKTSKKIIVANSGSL
UniProt Q9VQ79: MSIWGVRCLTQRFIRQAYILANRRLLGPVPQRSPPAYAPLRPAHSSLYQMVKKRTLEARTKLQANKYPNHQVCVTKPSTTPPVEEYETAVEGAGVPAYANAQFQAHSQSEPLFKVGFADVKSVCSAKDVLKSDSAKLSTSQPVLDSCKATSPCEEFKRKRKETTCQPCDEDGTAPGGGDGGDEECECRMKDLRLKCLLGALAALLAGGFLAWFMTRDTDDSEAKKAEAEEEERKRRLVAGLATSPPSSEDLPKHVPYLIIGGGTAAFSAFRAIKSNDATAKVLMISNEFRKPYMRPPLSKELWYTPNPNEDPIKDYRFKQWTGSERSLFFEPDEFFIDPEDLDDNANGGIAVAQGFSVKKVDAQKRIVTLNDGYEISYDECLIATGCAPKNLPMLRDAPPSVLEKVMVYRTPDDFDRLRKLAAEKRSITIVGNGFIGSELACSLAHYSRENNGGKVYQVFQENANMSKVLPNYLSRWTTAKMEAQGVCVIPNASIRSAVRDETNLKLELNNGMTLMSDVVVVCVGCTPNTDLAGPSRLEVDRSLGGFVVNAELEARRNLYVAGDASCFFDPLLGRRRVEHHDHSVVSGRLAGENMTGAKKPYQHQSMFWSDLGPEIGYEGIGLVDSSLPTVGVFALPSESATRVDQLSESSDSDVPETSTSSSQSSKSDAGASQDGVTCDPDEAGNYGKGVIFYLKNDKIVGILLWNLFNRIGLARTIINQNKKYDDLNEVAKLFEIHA

Assay [1] has as its target FLAG-tagged DNase II (FLAG-DNase II) (Drosophila) (UniProt Q9VED8). Description: pull-down; FLAG-tag pulldown from lysates of E. coli co-expressing the two proteins; Anti-DYKDDDDK G1 affinity resin; lysis in Tris-buffered saline with PMSF and protease inhibitors; blots with anti-FLAG and anti-GST.
Assay [2] concerns the target full-length recombinant Twin-Strep-tagged Cyp1 (Cyp1-Twin-Strep) (Drosophila) (UniProt P25007). Description: pull-down; Strep-tag pulldown from lysates of E. coli co-expressing the two proteins; Strep-Tactin Sepharose resin; 50 mM Tris-HCl pH 8, 500 mM NaCl; blots with anti-Strep-tag and anti-GST.

These are yes or no findings as the source states them, for the method shown. Binding seen in cells or lysates may run through a third protein. Binding calls can cover weak binding; strength is not graded here.

“full-length recombinant glutathione S-transferase-tagged AIF (GST-AIF) (from UniProt Q9VQ79)”: the binding entry in assay [1] and in assay [2] was “binds” in each case.
